{"sequences": {"note": "Sequences of proteins named here, by UniProt entry; tags and fusion partners are left off. A change or cut given only in a name is not applied to a line headed by its entry.", "UniProt P18054": "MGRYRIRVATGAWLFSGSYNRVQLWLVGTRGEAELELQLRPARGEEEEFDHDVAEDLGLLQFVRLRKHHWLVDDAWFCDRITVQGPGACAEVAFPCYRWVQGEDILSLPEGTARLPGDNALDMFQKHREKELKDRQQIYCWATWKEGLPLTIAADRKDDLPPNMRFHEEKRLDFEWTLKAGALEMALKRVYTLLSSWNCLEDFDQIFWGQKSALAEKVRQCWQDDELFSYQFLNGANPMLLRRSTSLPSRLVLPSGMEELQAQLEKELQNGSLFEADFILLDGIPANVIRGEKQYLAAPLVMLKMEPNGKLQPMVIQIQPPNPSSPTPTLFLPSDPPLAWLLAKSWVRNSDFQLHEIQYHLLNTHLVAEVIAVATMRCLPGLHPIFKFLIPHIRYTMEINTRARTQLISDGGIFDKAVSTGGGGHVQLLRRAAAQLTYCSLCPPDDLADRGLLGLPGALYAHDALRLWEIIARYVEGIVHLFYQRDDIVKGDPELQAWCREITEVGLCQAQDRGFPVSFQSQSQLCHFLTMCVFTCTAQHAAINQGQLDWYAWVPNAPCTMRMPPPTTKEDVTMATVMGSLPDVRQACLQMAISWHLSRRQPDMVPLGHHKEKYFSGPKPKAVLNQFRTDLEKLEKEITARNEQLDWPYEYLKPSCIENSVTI"}, "source": "PubChem BioAssay AID1671190", "about": "(National Center for Advancing Translational Sciences (NCATS), 2021)", "note": "The whole screen tested about 580,000 compounds, of which about 6,100 (1.1%) were called active. The inconclusive results got no clear call from the source; some entries with a clear call stand among them for comparison. Calls follow the shape of the dose curve; as a rule, active = well fitted inhibition curve with a large enough effect; inconclusive = small, poorly fitted or top-dose-only effect, or another doubt; inactive = no such curve, though single readings can be large or run the other way. Potencies beside an inconclusive call are fits to weak or partial responses and may not hold up. Potency is read from the fitted curve at half-maximal effect."}
{"target": "Polyunsaturated fatty acid lipoxygenase ALOX12 (Homo sapiens) (UniProt P18054)", "assay": "Primary qHTS assay for inhibitors of human arachidonate 12S-lipoxygenase (ALOX12): Round 2", "details": "purified 12hLO, xylenol orange hydroperoxide absorbance; series mostly up to 108 µM", "outline": "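Purified human 12hLO (150 nM final) in 25 mM Hepes, 0.01% Triton X-100, pH 7.0 was preincubated 15 min at room temperature with compound. Then 40 uM arachidonic acid was added, 30 min. Hydroperoxide was read by Fe-XO absorbance ratio 573/405 nm.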"}
{"smiles": "S=C(NCC1CCCO1)Nc1cc(Cl)c(Cl)cc1Cl", "note": "(centres undefined)", "Potency": "inconclusive: 39.8 µM [inhibitor, partial curve]"}
{"smiles": "CC(=O)N(C(C)=O)N1C(=O)C2C3c4ccccc4C(c4ccccc43)C2C1=O", "note": "(centres undefined)", "Potency": "inactive"}
{"smiles": "Cc1ccc(NC(=O)C2=C(c3ccccc3)NC(=S)NC2c2ccccc2)cc1", "note": "(centres undefined)", "Potency": "inconclusive: 50.1 µM [inhibitor, partial curve, poor fit]"}
{"smiles": "COc1ccc(S(=O)(=O)N2CCN(CC(=O)NC3CCCC3)CC2)cc1", "Potency": "inconclusive: 50.1 µM [inhibitor, partial curve, poor fit]"}
{"smiles": "O=C(O)c1ccc2ccccc2n1", "Potency": "inconclusive: 0.447 µM [inhibitor, full curve, poor fit]"}
{"smiles": "COc1ccc(CCNc2ncnc3c2cnn3-c2ccc(C)c(Cl)c2)cc1", "Potency": "inconclusive: 31.6 µM [inhibitor, partial curve, poor fit]"}
{"smiles": "CC[n+]1c(C)n(-c2ccccc2)c2ccc(C(=O)OC)cc21", "Potency": "inconclusive: 50.1 µM [inhibitor, partial curve, poor fit]"}
{"smiles": "Cc1ccccc1C(=O)N1CCC(C(=O)Nc2nccs2)CC1", "Potency": "inconclusive: 112 µM [inhibitor, partial curve, poor fit]"}
{"smiles": "CCc1cc(C(=O)COc2ccccc2F)c(O)cc1O", "Potency": "inconclusive: 44.7 µM [inhibitor, partial curve, poor fit]"}
{"smiles": "COc1ccc(OCC(O)Cn2c(=N)n(CCN3CCCCC3)c3ccccc32)cc1", "note": "(centres undefined)", "Potency": "inconclusive: 17.8 µM [inhibitor, partial curve, poor fit]"}
{"smiles": "Nc1nc(CN2CCN(C(c3ccccc3)c3ccccc3)CC2)nc(Nc2ccccc2)n1", "Potency": "inconclusive: 79.4 µM [inhibitor, partial curve, poor fit]"}
{"smiles": "O=[N+]([O-])c1c(Nc2ccccn2)cc(Cl)c2nonc12", "Potency": "inconclusive: 44.7 µM [inhibitor, partial curve, poor fit]"}
{"smiles": "Cc1ccc(-c2cc(-c3ccccc3)c(C#N)c(N)n2)o1", "Potency": "active: 0.794 µM"}
{"smiles": "Cc1cc(=O)c(C(=O)O)nn1-c1ccccc1Cl", "Potency": "inconclusive: 39.8 µM [inhibitor, partial curve, poor fit]"}
{"smiles": "Cc1ccc(NS(=O)(=O)c2cc(C(=O)O)cc3c2CCC3)cc1F", "Potency": "inconclusive: 7.94 µM [inhibitor, full curve, poor fit]"}
{"smiles": "O=C(c1cc2n(n1)CC(c1ccc(Br)cc1)OC2)N1CCOCC1", "note": "(centres undefined)", "Potency": "inconclusive: 35.5 µM [inhibitor, single point]"}
{"smiles": "CC(NC(=O)C1CCCCC1)c1ccccc1", "note": "(centres undefined)", "Potency": "inactive"}
{"smiles": "CCOc1ccc(CCN2C(=S)N([C@@H](Cc3ccc(O)cc3)CN3CCC[C@@H]3CN3C(=S)NC[C@@H]3Cc3ccccc3)C[C@@H]2CC(C)C)cc1", "Potency": "inconclusive: 44.7 µM [inhibitor, partial curve, poor fit]"}
{"smiles": "O=C(Nc1ccc(F)cc1)c1cccc2c1C(=O)N(Cc1ccccn1)C2", "Potency": "inconclusive: 25.1 µM [inhibitor, partial curve, poor fit]"}
{"smiles": "COc1cccc(CN2C(=O)NC3(CCCCCC3)C2=O)c1", "Potency": "inactive"}
{"smiles": "Cc1ccc(N(CCC#N)C(=O)CCl)cc1C", "Potency": "inconclusive: 25.1 µM [inhibitor, partial curve, poor fit]"}
{"smiles": "CCCn1c(=O)[nH]c(=O)c2c1nc(CCc1ccccc1)c(=O)n2CCOC", "Potency": "inconclusive: 44.7 µM [inhibitor, partial curve, poor fit]"}
{"smiles": "OCCN(CC(O)Cn1ccc2ccccc21)CC(O)Cn1ccc2ccccc21", "note": "(centres undefined)", "Potency": "inconclusive: 56.2 µM [inhibitor, partial curve, poor fit]"}
{"smiles": "O=C(OCc1ccccc1)N1CCc2ccccc21", "Potency": "inconclusive: 25.1 µM [inhibitor, single point]"}
{"smiles": "COC(=O)c1ccc(C(=O)O)nc1", "Potency": "inactive"}
{"smiles": "Cc1ccc(S(=O)(=O)C(CNC(=O)C(=O)NCCc2ccc(Cl)cc2)c2ccco2)cc1", "note": "(centres undefined)", "Potency": "inconclusive: 3.98 µM [inhibitor, full curve, poor fit]"}
{"smiles": "CC(=O)NCc1ccc(-c2csc(-c3ccccc3C)n2)o1", "Potency": "inconclusive: 50.1 µM [inhibitor, partial curve, poor fit]"}
{"smiles": "CCOC(=O)c1[nH]c2ccc(Br)cc2c1NC(=O)CCN1CCC(C)CC1", "Potency": "inactive"}
{"smiles": "C=CC[C@@H](CC(=O)N(CCO)Cc1ccccc1)C(=O)N[C@H](COC(=O)[C@@H](CC=C)Cc1ccc(F)cc1)Cc1c[nH]c2ccccc12", "Potency": "inconclusive: 79.4 µM [inhibitor, single point]"}
{"smiles": "C=CCn1c(SCC(=O)Nc2c(C)cccc2C)nnc1-c1cnccn1", "Potency": "inconclusive: 28.2 µM [inhibitor, single point]"}
{"smiles": "CCc1ccc(C2C=C(c3ccc(Br)cc3)Nc3ncnn32)cc1", "note": "(centres undefined)", "Potency": "inconclusive: 35.5 µM [inhibitor, partial curve]"}
{"smiles": "N#Cc1ccccc1-c1ccc2ncnc(NCCN3CCOCC3)c2c1", "Potency": "inconclusive: 5.01 µM [inhibitor, full curve, poor fit]"}
{"smiles": "O=C1O/C(=C\\c2ccc(O)cc2)C(O)=C1c1ccc(O)cc1", "Potency": "inconclusive: 39.8 µM [inhibitor, partial curve, poor fit]"}
{"smiles": "O=C(Nc1ccc(F)c(S(=O)(=O)N2CCOCC2)c1)c1ccccc1-c1ccccc1", "Potency": "inactive"}
{"smiles": "CCC(=O)N(Cc1cc(=O)[nH]c2ccccc12)c1ccccc1", "Potency": "inconclusive: 22.4 µM [inhibitor, partial curve, poor fit]"}
{"smiles": "Cc1cncc(C(=O)NC2CCN(c3ccc(=O)n(C)n3)CC2)c1", "Potency": "inconclusive: 7.08 µM [inhibitor, full curve, poor fit]"}
{"smiles": "COCCN1C(=O)C(O)=C(C(=O)c2ccc(C)o2)C1c1ccc(O)c(OC)c1", "note": "(centres undefined)", "Potency": "active: 17.8 µM"}
{"smiles": "C=CCn1c(-c2cc(Cl)ccc2OC)n[nH]c1=S", "Potency": "inconclusive: 44.7 µM [inhibitor, single point]"}
{"smiles": "Cn1c(=O)c2c(ncn2CC(=O)OCC(=O)c2ccc(Br)cc2)n(C)c1=O", "Potency": "inconclusive: 44.7 µM [inhibitor, partial curve, poor fit]"}
